Data as given in patent US20160235069A1, “N-ACRYLIMINO HETEROCYCLIC COMPOUNDS” (BASF SE, priority 2013, published 2016).
Some of these results come from one statement about several compounds together.

Tests used:
Type in all cases: in vivo
Plutella xylostella = experiment: Diamond back moth (Plutella xylostella), dipped cabbage leaves; conditions: 500 ppm; 3rd instar larvae on dipped cabbage leaves; 72 hours after treatment
Method: The active compound is dissolved at the desired concentration in a mixture of 1:1 (vol:vol) distilled water: acetone. Surfactant (Kinetic HV) is added at a rate of 0.01% (vol/vol). The test solution is prepared at the day of use.
Leaves of cabbage were dipped in test solution and air-dried. Treated leaves were placed in petri dishes lined with moist filter paper and inoculated with ten 3rd instar larvae. Mortality was recorded 72 hours after treatment. Feeding damages were also recorded using a scale of 0-100%.

Nephotettix virescens = experiment: Rice green leafhopper (Nephotettix virescens), sprayed rice seedlings; conditions: 500 ppm; adults on sprayed rice seedlings; after 72 hours
Method: (§1) Rice seedlings are cleaned and washed 24 hours before spraying. The active compounds are formulated in 50:50 acetone:water (vol:vol), and 0.1% vol/vol surfactant (EL 620) is added. Potted rice seedlings are sprayed with 5 ml test solution, air dried, placed in cages and inoculated with 10 adults. Treated rice plants are kept at about 28-29° C. and relative humidity of about 50-60%. Percent mortality is recorded after 72 hours.

Myzus persicae = experiment: Green peach aphid (Myzus persicae), systemic, artificial diet in 96-well plates; conditions: 2500 ppm; adult aphids on treated diet; 3 days
Text: General conditions: If not otherwise specified, most test solutions are to be prepared as follows: The active compound is to be dissolved at the desired concentration in a mixture of 1:1 (vol:vol) distilled water:acteon. Further, the test solutions are to be prepared at the day of use (and, if not otherwise specified, in general at concentrations wt/vol).
For evaluating control of green peach aphid (Myzus persicae) through systemic means, the test unit consists of 96-well-microtiter plates containing liquid artificial diet under an artificial membrane.
The compounds are formulated using a solution containing 75% v/v water and 25% v/v DMSO. Different concentrations of formulated compounds are pipetted into the aphid diet, using a custom built pipetter, at two replications.
After application, 5-8 adult aphids are placed on the artificial membrane inside the microtiter plate wells. The aphids are then allowed to suck on the treated aphid diet and incubated at about 23+1° C. and about 50+5% relative humidity for 3 days. Aphid mortality and fecundity is then visually assessed.

Megoura viciae = experiment: Vetch aphid (Megoura viciae), contact or systemic, broad bean leaf disks; conditions: 2500 ppm; adult aphids on sprayed leaf disks; 5 days
Method: For evaluating control of vetch aphid (Megoura viciae) through contact or systemic means the test unit consisted of 24-well-microtiter plates containing broad bean leaf disks.
The compounds were formulated using a solution containing 75% v/v water and 25% v/v DMSO. Different concentrations of formulated compounds were sprayed onto the leaf disks at 2.5 μl, using a custom built micro atomizer, at two replications.
After application, the leaf disks were air-dried and 5-8 adult aphids were placed on the leaf disks inside the microtiter plate wells. The aphids were then allowed to suck on the treated leaf disks and were incubated at about 23±1° C. and about 50±5% relative humidity for 5 days. Aphid mortality and fecundity was then visually assessed.

Aphis craccivora = experiment: Cowpea aphid (Aphis craccivora), sprayed potted cowpea plants; conditions: 500 ppm, after 72 hours
Method: The active compound is dissolved at the desired concentration in a mixture of 1:1 (vol:vol) distilled water: acetone. Surfactant (Alkamuls® EL 620) is added at a rate of 0.1% (vol/vol). The test solution is prepared at the day of use.
Potted cowpea plants are colonized with approximately 50-100 aphids of various stages by manually transferring a leaf tissue cut from infested plant 24 hours before application. Plants are sprayed after the pest population has been recorded. Treated plants are maintained on light carts at about 28° C. Percent mortality is assessed after 72 hours.

Aphis gossypii = experiment: Cotton aphid (Aphis gossypii), sprayed potted plants; conditions: 500 ppm, after 72 hours
Nilaparvata lugens = experiment: Rice brown plant hopper (Nilaparvata lugens), sprayed rice seedlings; conditions: 500 ppm; adults on sprayed rice seedlings; after 72 hours
Method: as §1, with “compounds is” for “compounds are”, “acetone:water (vol:vol)” for “acetone:water (vol:vol),”, “620) was” for “620) is”

Anthonomus grandis = experiment: Boll weevil (Anthonomus grandis), insect diet with eggs in 96-well plates; conditions: 2500 ppm; egg and larval mortality; 5 days
Method: For evaluating control of boll weevil (Anthonomus grandis) the test unit consisted of 96-well-microtiter plates containing an insect diet and 5-10 A. grandis eggs.
The compounds were formulated using a solution containing 75% v/v water and 25% v/v DMSO. Different concentrations of formulated compounds were sprayed onto the insect diet at 5 μl, using a custom built micro atomizer, at two replications.
After application, microtiter plates were incubated at about 25±1° C. and about 75±5% relative humidity for 5 days. Egg and larval mortality was then visually assessed.

Heliothis virescens = experiment: Tobacco budworm (Heliothis virescens), insect diet with eggs in 96-well plates; conditions: 2500 ppm; egg and larval mortality; 5 days
Dichromothrips corbetti = experiment: Orchid thrips (Dichromothrips corbetti), floral-immersion technique; conditions: 500 ppm; adult thrips on dipped orchid flowers; 72 hours after treatment
Method: Dichromothrips corbetti adults used for bioassay are obtained from a colony maintained continuously under laboratory conditions. For testing purposes, the test compound is diluted in a 1:1 mixture of acetone:water (vol:vol), plus 0.01% vol/vol Alkamuls® EL 620 surfactant.
Thrips potency of each compound is evaluated by using a floral-immersion technique. Plastic petri dishes are used as test arenas. All petals of individual, intact orchid flowers are dipped into treatment solution and allowed to dry. Treated flowers are placed into individual petri dishes along with about 20 adult thrips. The petri dishes are then covered with lids. All test arenas are held under continuous light and a temperature of about 28° C. for duration of the assay. After 3 days, the numbers of live thrips are counted on each flower, and along inner walls of each petri dish. The percent mortality is recorded 72 hours after treatment.

Measured: mortality in comparison with untreated controls

O=C(N=c1ccccn1Cc1ccc(Cl)nc1)C(F)=C(F)c1ccc(Cl)c(C(F)(F)F)c1 (mixture of isomers) [Compound E1.18]
at least 75%: Plutella xylostella

O=C(N=c1ccccn1Cc1ccc(Cl)nc1)C(F)=C(F)c1ccc(C(F)(F)F)cc1 (mixture of isomers) [Compound E1.19]
at least 75%: Plutella xylostella

CN(C)C=C(C#N)C(=O)N=c1ccccn1Cc1ccc(Cl)nc1 (mixture of isomers) [Compound E1.27]
at least 75%: Nephotettix virescens | Myzus persicae | Megoura viciae | Aphis craccivora | Aphis gossypii

CC(C)CC=C(C#N)C(=O)N=c1ccccn1Cc1ccc(Cl)nc1 (mixture of isomers) [Compound E1.30]
at least 75%: Nilaparvata lugens | Nephotettix virescens | Myzus persicae | Megoura viciae | Aphis craccivora

CCCCC=C(C#N)C(=O)N=c1ccccn1Cc1ccc(Cl)nc1 (mixture of isomers) [Compound E1.32]
at least 75%: Nilaparvata lugens | Nephotettix virescens | Myzus persicae | Megoura viciae | Aphis craccivora

CCCC=C(C#N)C(=O)N=c1ccccn1Cc1ccc(Cl)nc1 (mixture of isomers) [Compound E1.33]
at least 75%: Nephotettix virescens | Myzus persicae | Megoura viciae | Aphis craccivora | Aphis gossypii

C=C(F)C(=O)N=c1ccccn1Cc1cc(C)no1 [Compound E1.15]
at least 75%: Anthonomus grandis | Heliothis virescens | Megoura viciae | Plutella xylostella

CC(C)=C(C#N)C(=O)N=c1ccccn1Cc1ccc(Cl)nc1 [Compound E1.26]
at least 75%: all assays above
